Data as given in PubChem BioAssay AID1224830 (NIAID, 2016)

Screen: 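Regulators of TLR4 signalling towards TNF-alpha in macrophage-like cells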 (primary screen)
Cells: human THP-1 monocytic leukaemia cells, TNF dual-luciferase reporter clone, PMA-differentiated to macrophage-like cells
Knock-down reagent: siRNA pool against human genes, 50 nM
Duration: LPS for 4 h, given about 3 days after siRNA transfection
Conditions: bacterial LPS (TLR4 ligand), 10 ng/ml
Read-out: 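TNF firefly reporter luminescence divided by renilla, normalised to the plate median, then turned into a robust z-score for each replicate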
Reading the numbers: TNF reporter robust z-score: higher = stronger TNF reporter response to LPS
Rule for the call: 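Each well counts as active if its z-score is over 2.8 or under -1.5; controls are left without a call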
Here is a random part of about 18,000 deposited reagents. Of all reagents, about 2,900 (16%) were called active. 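Calls are made per well; low scores hint the gene aids the LPS response, high scores that it dampens it.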 Repeated entries: four replicate wells of each siRNA pool.

| gene | TNF reporter robust z-score | activity call |
| --- | --- | --- |
| WBP11 | -0.28 | inactive |
| WBP11 | -1.39 | inactive |
| WBP11 | -0.51 | inactive |
| WBP11 | 1.49 | inactive |
| RTL9 | -0.94 | inactive |
| RTL9 | -0.65 | inactive |
| RTL9 | -0.27 | inactive |
| RTL9 | -0.93 | inactive |
| NALF2 | 2.07 | inactive |
| NALF2 | 1.39 | inactive |
| NALF2 | 1.11 | inactive |
| NALF2 | 0.54 | inactive |
| NME7 | -1.16 | inactive |
| NME7 | -0.12 | inactive |
| NME7 | -0.65 | inactive |
| NME7 | -0.61 | inactive |
| ITPRID1 | 0.51 | inactive |
| ITPRID1 | -0.77 | inactive |
| ITPRID1 | 0.26 | inactive |
| ITPRID1 | 0.05 | inactive |
| PARN | -1.09 | inactive |
| PARN | -0.64 | inactive |
| PARN | -0.48 | inactive |
| PARN | -0.47 | inactive |
| SDHD | -1.61 | active |
| SDHD | -1.51 | active |
| SDHD | -1.88 | active |
| SDHD | -1.2 | inactive |
| RERG | -1.02 | inactive |
| RERG | -0.92 | inactive |
| RERG | -0.87 | inactive |
| RERG | -0.8 | inactive |
| OVOS2P | 0.64 | inactive |
| OVOS2P | 1.57 | inactive |
| OVOS2P | 1.41 | inactive |
| OVOS2P | 1.7 | inactive |
| ALAS1 | -1.32 | inactive |
| ALAS1 | -1.45 | inactive |
| ALAS1 | 0.09 | inactive |
| ALAS1 | -0.44 | inactive |

The list goes on (4 carried over from the part before).
| gene | TNF reporter robust z-score | activity call |
| --- | --- | --- |
| ALAS1 | -1.32 | inactive |
| ALAS1 | -1.45 | inactive |
| ALAS1 | 0.09 | inactive |
| ALAS1 | -0.44 | inactive |
| CALM2 | 1.58 | inactive |
| CALM2 | -0.2 | inactive |
| CALM2 | -1 | inactive |
| CALM2 | -0.21 | inactive |
| FAM24B | -0.13 | inactive |
| FAM24B | -0.18 | inactive |
| FAM24B | 0.36 | inactive |
| FAM24B | 1.05 | inactive |
| TXK | 1.23 | inactive |
| TXK | 1.18 | inactive |
| TXK | 0.78 | inactive |
| TXK | 1.29 | inactive |
| APOE | -0.37 | inactive |
| APOE | 0.31 | inactive |
| APOE | 0.1 | inactive |
| APOE | 2.19 | inactive |
| NUBPL | 0.76 | inactive |
| NUBPL | 1.02 | inactive |
| NUBPL | 0.33 | inactive |
| NUBPL | 0.06 | inactive |
| MRPL36 | -1.06 | inactive |
| MRPL36 | -0.91 | inactive |
| MRPL36 | -0.96 | inactive |
| MRPL36 | -1.35 | inactive |
| FBXO8 | 0.09 | inactive |
| FBXO8 | -2.43 | active |
| FBXO8 | 0.46 | inactive |
| FBXO8 | 0.32 | inactive |
| EPGN | -0.76 | inactive |
| EPGN | -0.86 | inactive |
| EPGN | -0.51 | inactive |
| EPGN | -0.93 | inactive |
| LRP4 | 0.59 | inactive |
| LRP4 | 1.48 | inactive |
| LRP4 | 0.39 | inactive |
| LRP4 | -0.66 | inactive |
| TMEM201 | -0.24 | inactive |
| TMEM201 | -0.5 | inactive |
| TMEM201 | -0.35 | inactive |
| TMEM201 | -0.44 | inactive |
| PPIL6 | 0.33 | inactive |
| PPIL6 | 3.5 | active |
| PPIL6 | 0.31 | inactive |
| PPIL6 | 1.98 | inactive |
| SLC31A2 | 0.05 | inactive |
| SLC31A2 | 2.2 | inactive |
| SLC31A2 | 0.76 | inactive |
| SLC31A2 | 0.16 | inactive |
| CTCF | 0.17 | inactive |
| CTCF | 1.26 | inactive |
| CTCF | 0.46 | inactive |
| CTCF | 2.37 | inactive |
| ATG2A | -0.75 | inactive |
| ATG2A | -0.07 | inactive |
| ATG2A | -0.56 | inactive |
| ATG2A | 0.51 | inactive |
| MINDY2 | 0.91 | inactive |
| MINDY2 | 0.22 | inactive |
| MINDY2 | -1.03 | inactive |
| MINDY2 | -0.66 | inactive |
| NPC1L1 | 0.92 | inactive |
| NPC1L1 | 1.32 | inactive |
| NPC1L1 | 2.35 | inactive |
| NPC1L1 | 1.62 | inactive |
| CHRNA6 | 0.94 | inactive |
| CHRNA6 | 0.16 | inactive |
| CHRNA6 | 0.28 | inactive |
| CHRNA6 | 0.69 | inactive |
| ATMIN | -1.87 | active |
| ATMIN | -0.71 | inactive |
| ATMIN | -1.26 | inactive |
| ATMIN | -1.08 | inactive |
